Measurements taken from US5576433A, “Fluorescent calcium indicators targeted to specific intracellular environments” (priority 1994, dated 1996).

Test: pH sensitivity of the calcium dissociation constant (Table 2)
Type: binding
Conditions: for effect of the piperazine amino group on pH sensitivity (in words): compared to fura-2; for DKd/pH: pH 6.9 vs pH 7.3, 20° C.
Description: The calcium dissociation constant of BAPTA-like calcium chelators and indicators is strongly affected by electron withdrawing effects of substituents on the BAPTA aromatic rings. The zwitterionic indicators described herein each contain an ionizable amine. The difference in electron withdrawing effects of the ionized and unionized amine could potentially communicate to BAPTA, creating a situation were the calcium affinity varied with pH. The design of PE3 and FFP18 was aimed at minimizing or eliminating this possibility by insulating the ionizable amine from the BAPTA ring with an aliphatic spacer containing one or more carbons. To test the effectiveness of this design, the calcium Kd of PE3 and FFP18 was measured at different pH values and compared to the values obtained for fura-2. […] Thus, the aim of the test was to determine whether the piperazine amino group gives the indicator increased pH sensitivity.
On page 36 of U.S. Pat. No. 4,603,209 (Tsien, et. al., 1987 Aug. 25), R2 is claimed as H, CH3, F, Cl, Br and […]. The R2 of PE3 and FFP18 is none of these claimed in that patent.

O=C(O)CN1CCN(C(=O)CCc2ccc(N(CC(=O)O)CC(=O)O)c(OCCOc3cc4cc(-c5ncc(C(=O)O)o5)oc4cc3N(CC(=O)O)CC(=O)O)c2)CC1 [PE3]
effect of the piperazine amino group on pH sensitivity (in words): little difference in pH sensitivity | DKd/pH: 65

Cc1ccc(N(CC(=O)O)CC(=O)O)c(OCCOc2cc3cc(-c4ncc(C(=O)O)o4)oc3cc2N(CC(=O)O)CC(=O)O)c1 [fura-2, reference compound]
effect of the piperazine amino group on pH sensitivity (in words): already slightly pH sensitive | DKd/pH: 55
